The source of these data is the supplement of paper PMC8326762, “A Small Molecule Inhibitor of Pex3–Pex19 Interaction Disrupts Glycosome Biogenesis and Causes Lethality in Trypanosoma brucei” (Frontiers in Cell and Developmental Biology, 2021).

Counter-ions that a name gives are not always drawn. Some of the results follow. The data scatter; read single values as rough.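 Yeast growth was measured as optical density at 600 nm. Two-hybrid strains grew without histidine, so growth depended on Pex3–Pex19 binding. A compound was trypanosome-selective if it reduced growth of the trypanosome-pair strain by over 65% and of the human-pair strain by under 65%.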

The assay has as its system Saccharomyces cerevisiae HF7c pdr5Δ. The experiment in a line: general growth inhibition of yeast HF7c pdr5Δ in -Leu -Trp medium, relative to DMSO; higher = stronger general growth inhibition. To be noted: 100 µM; 24 h.
`CC(C)(C)OC(=O)NC1[C@H]2CNC[C@@H]12` (stereo partly specified) showed a general growth inhibition of 41.9%. The result for `c1ccc2c(N3CCNCC3)cccc2c1` [1-(1-Naphthyl)piperazine hydrochloride] reads 39.4%.

The compound `CCCN1CCC[C@@H]2Cc3nc(N)ncc3C[C@H]21` [Quinelorane dihydrochloride] yielded a general growth inhibition of 13.6%. For the compound `CCCCCCCCCCCCCC(=O)O[C@@H]1[C@@H](C)[C@@]2(O)[C@@H](C=C(CO)C[C@]3(O)C(=O)C(C)=C[C@@H]23)[C@@H]2C(C)(C)[C@]12OC(C)=O` [Phorbol 12-myristate 13-acetate], the general growth inhibition was 30.7%. `CN1CCc2cccc(Cl)c2CC1` had a general growth inhibition of 47%. In the case of `CC[C@@H](CO)NC(=O)[C@@H]1C=C2c3cccc4c3c(cn4C)C[C@H]2N(C)C1` [Methysergide maleate] it was 46.8%; in that of `CCCN1CCc2cccc3c2[C@H]1Cc1ccc(O)c(O)c1-3` [R(-)-Propylnorapomorphine hydrochloride], 36.6%. In the case of `Cc1nccc2c1[nH]c1ccccc12` [Harmane] it was 31.8%; in that of `Cc1cc([C@@H]2CCCN2C)on1` [ABT-418 hydrochloride], 30.3%. In the case of `CCCN1CCc2cc(O)cc3c2[C@H]1Cc1ccc(O)c(O)c1-3` [R(-)-2,10,11-Trihydroxy-N-propylnoraporphine hydrobromide] it was 33%; in that of `CC[C@@H](CO)NC(=O)[C@@H]1C=C2c3cccc4[nH]cc(c34)C[C@H]2N(C)C1` [Methylergonovine maleate], 32.6%. `NC(=O)c1cc(N2CC2)c([N+](=O)[O-])cc1[N+](=O)[O-]` displayed a general growth inhibition of 38%. The result for `NC(=O)CN1CC(O)CC1=O` (stereo unspecified) [Oxiracetam] reads 51.2%. Turning to `CN1[C@@H]2CC[C@H]1C[C@@H](OC(c1ccccc1)c1ccccc1N)C2` (stereo partly specified) [Aminobenztropine], the general growth inhibition was found to be 40.9%.

In turn, `NC(N)=NOCC[C@H](N)C(=O)O` [L-Canavanine sulfate] displayed a general growth inhibition of 10.7%. On to `C=C(C)[C@@H]1[C@H]2OC(=O)[C@@H]1[C@]1(O)C[C@H]3OC34C(=O)O[C@H]2[C@@]41C.CC(C)(O)[C@@H]1[C@H]2OC(=O)[C@@H]1[C@]1(O)C[C@H]3OC34C(=O)O[C@H]2[C@@]41C` (stereo partly specified) [Picrotoxin], for which the general growth inhibition is 57.9%. In the case of `O=[N+]([O-])c1ccc2nc(N3CCNCC3)ccc2c1` [Quipazine, 6-nitro-, maleate], the general growth inhibition is 43.9%. The result for `C=CCN1CC[C@]23CCCC[C@H]2[C@H]1Cc1ccc(O)cc13` [Levallorphan tartrate] reads 47.1%. In the case of `CNc1ccc2oc(C[C@H]3O[C@@]4(CC[C@H]3C)O[C@H]([C@H](C)C(=O)c3ccc[nH]3)[C@H](C)C[C@H]4C)nc2c1C(=O)O` [Calcimycin] it was 66.6%. Regarding `CCCC[N+]1(C)[C@@H]2C[C@@H](OC(=O)[C@H](CO)c3ccccc3)C[C@H]1[C@@H]1O[C@@H]12` (single isomer, unassigned; (-)) [(-)-Scopolamine,n-Butyl-, bromide], the general growth inhibition was 52.3%.

Compound `CC(N)Cc1c[nH]c2ccc(OCc3cccs3)cc12` (stereo unspecified) registered a general growth inhibition of 34.6%.

For `c1ccc2c(c1)OCC(C1=NCCN1)O2` (stereo unspecified) [Idazoxan hydrochloride], the general growth inhibition came out at 42.4%.

On to `CCCN1CCC[C@@H]2Cc3n[nH]cc3C[C@H]21` [(-)-Quinpirole hydrochloride], for which the general growth inhibition is 65.6%. With `CC(C)N(CCC(C(N)=O)(c1ccccc1)c1ccccn1)C(C)C` (stereo unspecified) [Disopyramide], the general growth inhibition was found to be 16.7%. Take `O=C1CCCN1CC#CCN1CCCC1` [Oxotremorine sesquifumarate salt]: the general growth inhibition came to 50.9%.

As for `CCCN(CCC)C1Cc2cc(OC)c(OC)cc2C1`, the general growth inhibition amounted to 44.8%. In the case of `NC(N)=NOCC[C@H](N)C(=O)O` [L-Canavanine] it was 23.8%. The result for `NCC(O)c1ccc(O)cc1` (racemic) [(±)-Octopamine hydrochloride] reads 44.6%. The result for `CN(C)C(=O)Oc1cccc([N+](C)(C)C)c1` [Neostigmine bromide] reads 47.5%; that for `CC(N)Cc1c[nH]c2ccc(O)cc12` (stereo not drawn) [alpha-Methyl-5-hydroxytryptamine maleate], 52.1%. In turn, `NCCCNCCSP(=O)(O)O` [Amifostine] registered a general growth inhibition of 52.4%. The result for `CN1CC[C@]2(CCN3CCc4c(oc5ccccc45)[C@@H]3C2)N(C)C1=O` reads 53.2%; that for `N.N.[Cl][Pt][Cl]` [Cisplatin], 35%. The result for `COC(=O)C1=CCCN(C)C1` [Arecoline hydrobromide] reads 49.9%; that for `CCC1(C2=NCCN2)Cc2ccccc2O1` (stereo unspecified) [Efaroxan hydrochloride], 32.7%. `NC(Cn1oc(=O)[nH]c1=O)C(=O)O` (single isomer, unassigned; (+)) [(+)-Quisqualic acid] gave a general growth inhibition of 32.3%.
